Consider 1 molecule from publication PMC11242348.

The chains behind the UniProt entries cited, without tags or fusion partners.
UniProt P38936: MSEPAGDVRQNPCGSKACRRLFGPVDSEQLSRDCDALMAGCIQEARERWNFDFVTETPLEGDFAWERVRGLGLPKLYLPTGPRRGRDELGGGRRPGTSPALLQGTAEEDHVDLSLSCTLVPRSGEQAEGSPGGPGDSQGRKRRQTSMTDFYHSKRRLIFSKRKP

The target in this test is p21 (human (endogenous in HCC cell lines)) (UniProt P38936). The test can be described thus: co-IP; 300 µg total protein lysate with 2 µg antibody against the protein of interest or control IgG overnight at 4°C; Protein A/G Plus-Agarose beads; four washes with IP lysis buffer; Western blot.

These are yes or no findings as the source states them, for the method shown. In cells and extracts the contact can be indirect. Some results given as binding are weak or reduced against the parent protein; the word gives no strength.

B1: IRF7 (protein, UniProt Q92985 1-503)
chain: MALAPERAAPRVLFGEWLLGEISSGCYEGLQWLDEARTCFRVPWKHFARKDLSEADARIFKAWAVARGRWPPSSRGGGPPPEAETAERAGWKTNFRCALRSTRRFVMLRDNSGDPADPHKVYALSRELCWREGPGTDQTEAEAPAAVPPPQGGPPGPFLAHTHAGLQAPGPLPAPAGDKGDLLLQAVQQSCLADHLLTASWGADPVPTKAPGEGQEGLPLTGACAGGPGLPAGELYGWAVETTPSPGPQPAALTTGEAAAPESPHQAEPYLSPSPSACTAVQEPSPGALDVTIMYKGRTVLQKVVGHPSCTFLYGPPDPAVRATDPQQVAFPSPAELPDQKQLRYTEELLRHVAPGLHLELRGPQLWARRMGKCKVYWEVGGPPGSASPSTPACLLPRNCDTPIFDFRVFFQELVEFRARQRRGSPRYTIYLGFGQDLSAGRPKEKSLVLVKLEPWLCRVHLEGTQREGVSSLDSSSLSLCLSSANSLYDDIECFLMELEQPA
On to B1, for which the binding entry is listed as “binds”.
